Literature values, collected in paper PMC8185074, “Anchor extension: a structure-guided approach to design cyclic peptides targeting enzyme active sites” (Nature Communications, 2021).

Sequences of proteins named here, by UniProt entry; tags and fusion partners are left off. A change or cut given only in a name is not applied to a line headed by its entry.
UniProt O15379: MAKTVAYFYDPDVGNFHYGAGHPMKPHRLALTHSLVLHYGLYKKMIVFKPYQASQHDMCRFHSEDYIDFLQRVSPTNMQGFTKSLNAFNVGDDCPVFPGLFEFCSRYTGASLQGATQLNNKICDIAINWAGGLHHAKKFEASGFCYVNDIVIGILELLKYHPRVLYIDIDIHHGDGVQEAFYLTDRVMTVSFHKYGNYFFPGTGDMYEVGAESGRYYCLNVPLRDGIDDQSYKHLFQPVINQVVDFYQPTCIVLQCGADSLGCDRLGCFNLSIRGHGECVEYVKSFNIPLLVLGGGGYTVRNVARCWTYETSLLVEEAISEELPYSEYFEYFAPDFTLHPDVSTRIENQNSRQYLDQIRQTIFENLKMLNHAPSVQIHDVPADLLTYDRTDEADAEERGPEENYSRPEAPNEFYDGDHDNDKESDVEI

Target: T1, HDAC3 (Homo sapiens, UniProt O15379)
T1 construct: purchased Reaction Biology Corporation (assay run by the CRO)
Details: read-out: HDAC3 inhibitory potency (quantity not named); cited from earlier work

Q: With `CCCCCCCC(=O)SCC/C=C/[C@@H]1CC(=O)NCc2nc(cs2)C2=N[C@@](C)(CS2)C(=O)N[C@@H](C(C)C)C(=O)O1` [Largazole] as the compound, how does the IC50 read?
A: ~3 nM
